# Percent effect of library compounds

Data taken from ChEMBL document CHEMBL3988442, “University of Dundee, Small-Polar-MMV Screening Library” (2021).

Values are the deposited “Percent Effect”, in %. The controls that fix the scale are not given in the record; negative values are as filed. This is an unselected part of the compounds tested. Two or more numbers in one place are separate tests of the same structure; such repeats can differ widely.

Mtb glucose medium: 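Whole-cell growth test on Mycobacterium tuberculosis, read after 3 days in glucose-containing 7H9 medium; the read-out is not stated. Concentration: 50 µM. The record gives no direction; compounds that gave an IC50 in retests scored well above the rest, so higher reads as more growth inhibition. Size under these conditions: about 69,000 compounds, about 760 of them at 50% or above in at least one test.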
Mtb cholesterol medium: 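Phenotypic screen: M. tuberculosis growth, cholesterol and DPPC medium, 4 days; the read-out is not stated. Compounds at 50 µM. Direction is inferred from retests: higher values go with more growth inhibition. About 69,000 compounds were tested under these conditions; 0.54% (about 370) showed 50% or more at least once.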

{"smiles": "Cc1nnc(CN(C)C(=O)C(CC(C)C)N2CCCCC2=O)n1C", "stereo": "stereo not shown", "Mtb glucose medium": "0.6987 and 0.3917", "Mtb cholesterol medium": 14.37}
{"smiles": "CCSc1ccccc1C(=O)N1CCC(S(=O)(=O)c2nncn2C)CC1", "Mtb glucose medium": 10.88, "Mtb cholesterol medium": 10.24}
{"smiles": "CCc1nc(CN(C)C2CCN(CCc3ccccn3)C2)no1", "stereo": "stereo not shown", "Mtb glucose medium": -5.816, "Mtb cholesterol medium": -27.76}
{"smiles": "O=C(Nc1ccc(F)cc1)C1CCc2ccccc2N1", "stereo": "stereo not shown", "Mtb glucose medium": 19.53, "Mtb cholesterol medium": 3.927}
{"smiles": "CCc1c(C)noc1-c1cnc(NC2CC2)nc1-c1cnc(C)cn1", "Mtb glucose medium": 12.44, "Mtb cholesterol medium": 26.07}
{"smiles": "O=C(O)C1CCN(C(=O)CCn2ccc3cc(Br)ccc32)CC1", "Mtb glucose medium": -14.39, "Mtb cholesterol medium": -15.94}
{"smiles": "CCCOCCN1CCC2(CC1)CC(=O)N(Cc1cc(F)cc(F)c1)C2", "Mtb glucose medium": 8.528, "Mtb cholesterol medium": 0.8276}
{"smiles": "O=C(O)C(F)(F)F.[H][C@@]12OCCN(C(=O)c3ccoc3C)[C@@]1([H])CC[C@H]2Oc1cccnc1", "Mtb glucose medium": -48, "Mtb cholesterol medium": "-28.67 and -29.86"}
{"smiles": "CCn1ccnc1CN1CCCN(C(=O)c2ccnn2C)CC1", "Mtb glucose medium": 4.161, "Mtb cholesterol medium": 8.057}
{"smiles": "CCN1CCN(c2ccc(C(=O)NCCn3ccnc3)cc2F)CC1", "Mtb glucose medium": "-8.653 and -3.316", "Mtb cholesterol medium": 11.43}
{"smiles": "CC(O)CN1CCN(C(=O)c2cccn2Cc2cccnc2)CC1", "stereo": "stereo not shown", "Mtb glucose medium": 1.959, "Mtb cholesterol medium": 5.416}
{"smiles": "CC(C)N(C)S(=O)(=O)N(Cc1cccs1)CC1CCCO1", "stereo": "stereo not shown", "Mtb glucose medium": "-3.948 and -44.91", "Mtb cholesterol medium": -42.67}
{"smiles": "NCC1CCN(c2nc(C3CCCC3)nc3c2CCNCC3)C1", "stereo": "stereo not shown", "Mtb glucose medium": 37.66, "Mtb cholesterol medium": 29.48}
{"smiles": "CCN1CC2(CCC1=O)CCN(Cc1cscn1)CC2", "Mtb glucose medium": -7.781, "Mtb cholesterol medium": 16.61}
{"smiles": "Cc1nn(C)c2cnn(Cc3ccc(C(=O)N4CCN(C)CC4)o3)c12", "Mtb glucose medium": 23.42, "Mtb cholesterol medium": -20.53}
{"smiles": "Cc1ncc(CNC(CCO)C2CCCCC2)s1", "stereo": "stereo not shown", "Mtb glucose medium": "-8.639 and -8.838", "Mtb cholesterol medium": -0.7748}
{"smiles": "CC(C)N(C)Cc1cnc2n1CCN(Cc1cccc(F)c1)C2.O=C(O)C(F)(F)F.O=C(O)C(F)(F)F", "Mtb glucose medium": 12.48, "Mtb cholesterol medium": 7.475}
{"smiles": "Cc1cccc(CN2CCc3onc(Cn4cccc4)c3C2)n1.O=C(O)C(F)(F)F", "Mtb glucose medium": -21.44, "Mtb cholesterol medium": -9.395}
{"smiles": "O=C(O)C(F)(F)F.[H][C@@]12COC[C@]1([H])[C@@H](OC)CN2Cc1cccc(C#N)c1", "Mtb glucose medium": -0.2084, "Mtb cholesterol medium": 1.437}
{"smiles": "CNC(=O)C1CCCN(C(=O)c2ccccc2-n2cc(CN)cn2)C1", "stereo": "stereo not shown", "Mtb glucose medium": -41.86, "Mtb cholesterol medium": -13.54}
{"smiles": "CC(=O)N1CCC(c2ccnc(Nc3cnccn3)n2)C1", "stereo": "stereo not shown", "Mtb glucose medium": 5.597, "Mtb cholesterol medium": -24.73}
{"smiles": "Cc1cc2c(N3CCCC(OCc4cccnc4)C3)ncnc2s1", "stereo": "stereo not shown", "Mtb glucose medium": 28.53, "Mtb cholesterol medium": 4.47}
{"smiles": "CSc1ccc(NCc2csc(CS(C)(=O)=O)n2)cc1F", "Mtb glucose medium": 16.99, "Mtb cholesterol medium": -3.285}
{"smiles": "Cc1cccc(OCCN2CCCC(c3cc(C(N)=O)[nH]n3)C2)c1", "stereo": "stereo not shown", "Mtb glucose medium": 21.24, "Mtb cholesterol medium": 5.371}
{"smiles": "COc1ccc2c(c1)OCC(CNC(=O)c1cnc(O)cn1)C2", "stereo": "stereo not shown", "Mtb glucose medium": -34.13, "Mtb cholesterol medium": -20.32}
{"smiles": "Cc1ccc2c(c1)C(NCc1ncnn1C)CC2", "stereo": "stereo not shown", "Mtb glucose medium": 17.99, "Mtb cholesterol medium": 30.08}
{"smiles": "Fc1cnc(N2CC[C@@H](N3CCOCC3)[C@@H]2Cc2ccncc2)nc1.O=C(O)C(F)(F)F.O=C(O)C(F)(F)F", "Mtb glucose medium": "7.542 and -11.43", "Mtb cholesterol medium": -4.33}
{"smiles": "CN1CCC/C1=N\\S(=O)(=O)c1ccc(NC(=O)c2ccsc2)cc1", "Mtb glucose medium": -14.31, "Mtb cholesterol medium": -18.2}

The last 3 entries again:

* Cc1ccc2c(c1)C(NCc1ncnn1C)CC2 (stereo not shown) : Mtb glucose medium: 17.99%; Mtb cholesterol medium: 30.08%
* Fc1cnc(N2CC[C@@H](N3CCOCC3)[C@@H]2Cc2ccncc2)nc1.O=C(O)C(F)(F)F.O=C(O)C(F)(F)F : Mtb glucose medium: 7.542% and -11.43%; Mtb cholesterol medium: -4.33%
* CN1CCC/C1=N\S(=O)(=O)c1ccc(NC(=O)c2ccsc2)cc1 : Mtb glucose medium: -14.31%; Mtb cholesterol medium: -18.2%